Some of the results follow.

Chains of the proteins cited; added tags and fusions are not shown.
UniProt Q0JBA9, entry or part of it: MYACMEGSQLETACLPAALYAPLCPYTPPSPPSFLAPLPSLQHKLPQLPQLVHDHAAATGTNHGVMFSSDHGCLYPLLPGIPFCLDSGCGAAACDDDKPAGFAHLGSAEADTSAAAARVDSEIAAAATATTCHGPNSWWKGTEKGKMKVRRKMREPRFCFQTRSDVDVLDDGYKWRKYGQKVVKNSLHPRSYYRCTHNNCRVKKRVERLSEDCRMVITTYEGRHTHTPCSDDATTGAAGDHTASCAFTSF

The assay has as its target OsWRKY34 (Oryza sativa, UniProt Q0JBA9 1-250). The assay is described as follows: protein-binding microarray (RPBM); PBS, 2% BSA, 51.3 ng/ul salmon testes DNA, 50 uM zinc acetate, 200 nM TF, 25 C, 1 h; high values mean tight binding. The following applies: protein: recombinant; tags: N-terminal polyhistidine and DsRed monomer fusion (pET32a); label: CyDye5-dUTP incorporated in the synthesized complementary strand; 3' TTTTT single-stranded linker to array surface; dsDNA, one strand shown. A digest of the protocol:
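For the binding signal, per-feature fluorescence intensity was read in arbitrary units on an Axon 4000B scanner. Before scanning, a 2% BSA-blocked custom Agilent array made double-stranded with Cy5-dUTP was washed after 1 h at 25 °C with 200 nM protein and 50 µM zinc acetate. The proteins were Ni–NTA-purified transcription factors with N-terminal polyhistidine and DsRed fusions, expressed in E. coli BL21-CodonPlus.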
“GTGTTCTCATTGTATTGGGTATTCAAATGTTTTGTAATATCGGAGTCACCTAGTGCAG”: the binding signal is 9730 fluorescence intensity (a.u.). Next, “CTTGGATATGCATCGTGTTGTGTTGCGTGTTGCCGCTCCGCGGAGTCACCTAGTGCAG”: 10800 fluorescence intensity (a.u.); “ATCACTAATCTTTGTTGCTCTCTTTTCTTGTGTTCAGGCACGGAGTCACCTAGTGCAG”: 12800 fluorescence intensity (a.u.).

Regarding “TTCCTCTGCTCTCTCTGGAACTCACCGCCCTCACTTCCACCGGAGTCACCTAGTGCAG”, the binding signal is 11900 fluorescence intensity (a.u.). Next, “CTTTTCTTCATTGTCTTTTGGTTTAAGGTCCTCATTTTCCCGGAGTCACCTAGTGCAG”: 10800 fluorescence intensity (a.u.); “TACCCCTGAATTTTCATTTTGATCTCATCTATACCCATCTCGGAGTCACCTAGTGCAG”: 8070 fluorescence intensity (a.u.); “GTTGAAGTTTTTGGCAGGGGTTAGTTTCGAAATAAGTTTTCGGAGTCACCTAGTGCAG”: 8170 fluorescence intensity (a.u.). For “GGGCCCCACAACAATCGCCCTCATGTTGAATCTTCGCGTCCGGAGTCACCTAGTGCAG”, the binding signal was 8900 fluorescence intensity (a.u.).

In the case of “CCCGTTGTTCTTCCCTCGCTTGCACGCCGCCGCCGCCATGCGGAGTCACCTAGTGCAG”, the binding signal is 8360 fluorescence intensity (a.u.). Then “ATATTCTCTAGCTCCATGCCTTCATCTTGTTCAGGTTCCTCGGAGTCACCTAGTGCAG”, with 8460 fluorescence intensity (a.u.); and “GTCACCACGATCGCATTCACCTCCCATCCCACAATGTTGCCGGAGTCACCTAGTGCAG”, with 8100 fluorescence intensity (a.u.); and “TCTCCATCCGACACCTTCCGGTGCTTGCGCCCATCGATCCCGGAGTCACCTAGTGCAG”, with 8650 fluorescence intensity (a.u.). Then “ATAAGGTTACGGTTAATTTTTAAGGGGTTTTCACTTGTTTCGGAGTCACCTAGTGCAG”, with 9480 fluorescence intensity (a.u.); and “TTCCACTTTGCACTAGGTTGCATCACATAATTAAAAACAACGGAGTCACCTAGTGCAG”, with 8300 fluorescence intensity (a.u.).

As to “TTACTTGTACTGTTTGACTATTCGTCTTATTCCAAAAAAACGGAGTCACCTAGTGCAG”, the binding signal was 8820 fluorescence intensity (a.u.).

For the sequence “GAAATCCTCGTGAATCTCTCGCTCTCTCGCCGCCGCCGCCCGGAGTCACCTAGTGCAG”, the binding signal is 8590 fluorescence intensity (a.u.). Then “CAGCAGCAGTGGTGGTGGTGGTTTTGGTAGTGGCTGGGAGCGGAGTCACCTAGTGCAG”, with 9780 fluorescence intensity (a.u.). “ACCTCACCTCGTCCTCGTCGTCTTCTTCTCCCCACGCTTGCGGAGTCACCTAGTGCAG”: the binding signal is 11600 fluorescence intensity (a.u.).

For “GCACGCCATGTCAGCCGCCGCTTTGCTTTGCTCCACGTGTCGGAGTCACCTAGTGCAG”, the binding signal is 9610 fluorescence intensity (a.u.). Turning to “ACTCCCACTCCTCTCCACCTTCAAATCCACGCGAGTTGTTCGGAGTCACCTAGTGCAG”, the binding signal was 8640 fluorescence intensity (a.u.).

As for “CTCGCGCCCGTTGCTGCCTTACACAGCACACCACACTACCCGGAGTCACCTAGTGCAG”, the binding signal was 9050 fluorescence intensity (a.u.).

Turning to “CCTTTGTCAATCTCCACCACATCATCTCCTACCTCGTCCTCGGAGTCACCTAGTGCAG”, the binding signal is 8180 fluorescence intensity (a.u.). Next, “TATTTAAAACAGTTTCCGTGTGCGCACACATATAAATACACGGAGTCACCTAGTGCAG”: 8240 fluorescence intensity (a.u.); “CCTTTTTGCTCCGATTCAATTTCTCGATCGTTTCTTTCCCCGGAGTCACCTAGTGCAG”: 9090 fluorescence intensity (a.u.); “GCTGACATATTGGCTTCACAATTGCTTTTCTTGTTACTTACGGAGTCACCTAGTGCAG”: 8900 fluorescence intensity (a.u.). Regarding “CGAGCAAGTGTGCAACTCGATCCACTCCACCGTTTGTCTTCGGAGTCACCTAGTGCAG”, the binding signal is 9270 fluorescence intensity (a.u.). On to “AATTGACTAGCTATAGTTTGATCTGATCGATCCGTTGTTTCGGAGTCACCTAGTGCAG”, for which the binding signal was 9500 fluorescence intensity (a.u.). Then “TCTTTCGTCGCAATGCCACGCCATCATCGATCCCTTTCCTCGGAGTCACCTAGTGCAG”, with 10300 fluorescence intensity (a.u.). Next, “AAAAGAAAAATTTTTTGTGTCACATCGGATGTTTGACCGGCGGAGTCACCTAGTGCAG”: 8370 fluorescence intensity (a.u.); “CCTCCATCTATTTCTGTGTTTGTGCTCCTCTACTGTCTCCCGGAGTCACCTAGTGCAG”: 8790 fluorescence intensity (a.u.). On to “ACTTTGTACTAGTTTTCATATTATGTCATTCTTTAACCATCGGAGTCACCTAGTGCAG”, for which the binding signal was 8420 fluorescence intensity (a.u.). Then “CCGCCTCCGCCGACGTGCGCTGCGGCCCACCTTTGCTTCTCGGAGTCACCTAGTGCAG”, with 8500 fluorescence intensity (a.u.); and “ATGGATCTCAGTGTTTATCACTCACACATCTTACATTCACCGGAGTCACCTAGTGCAG”, with 8030 fluorescence intensity (a.u.); and “GTTAGTAGATAGCTTTGCTCTCTTTCTCTTCATTTAATCTCGGAGTCACCTAGTGCAG”, with 9320 fluorescence intensity (a.u.).

As for “ACCTAGTACGTATACACCTCAATCCATTATAAATAGCAACCGGAGTCACCTAGTGCAG”, the binding signal was 8280 fluorescence intensity (a.u.). For “CATATGTTGTTTTCTATTTCCCACTAATTTTCGTCATTTTCGGAGTCACCTAGTGCAG”, the binding signal was 10400 fluorescence intensity (a.u.).

Take “ATTATCTTTGGTCTTGATGTATAAACTTATATGATGATCACGGAGTCACCTAGTGCAG”: the binding signal was 8320 fluorescence intensity (a.u.).

As to “GCTCTCTACTTTATTGATGCACAATACTAGTACAATTAATCGGAGTCACCTAGTGCAG”, the binding signal was 8260 fluorescence intensity (a.u.).

As to “TAATTGTTACCCTGGAAGCACCTGACATTATTGCATTGGACGGAGTCACCTAGTGCAG”, the binding signal is 8230 fluorescence intensity (a.u.). With “TTATAGCCCGCTGCTTTTCTCTCTCTTTCTTTTCATTTTACGGAGTCACCTAGTGCAG”, the binding signal is 8070 fluorescence intensity (a.u.). Next, “AACAACTCTCGCGCCCTCGCCTCGCCTCGCCGCCTTTTCTCGGAGTCACCTAGTGCAG”: 14500 fluorescence intensity (a.u.); “AGACGAGCAGAGTAGTTCAGTTGTTAGTATTGTCCTCTTTCGGAGTCACCTAGTGCAG”: 8320 fluorescence intensity (a.u.); “GATGTGTTGGCTGTCTTTGTTTTTTTTTTCCTGGTTTACCCGGAGTCACCTAGTGCAG”: 14000 fluorescence intensity (a.u.). Take “CATTGGTTGACTCTGCACCTGCTCTTACTTGCTCGAGTGACGGAGTCACCTAGTGCAG”: the binding signal is 9360 fluorescence intensity (a.u.). Then “GTTAGTTGGCTGACTCCACACGCCTCGCCGTCTCAGTGTCCGGAGTCACCTAGTGCAG”, with 9100 fluorescence intensity (a.u.); and “TTGATTCTGTTAGAGTCACGCACATGACCTCGCTGGTTTTCGGAGTCACCTAGTGCAG”, with 9710 fluorescence intensity (a.u.). Consider “TTTGACAGTTTGCCAGATGCTGCCTACCAACCCACAAAACCGGAGTCACCTAGTGCAG”, for which the binding signal was 9230 fluorescence intensity (a.u.).

On to “CTGTAGTCCGCTACTCTTATCTTTTATCTTTTTTATTTTACGGAGTCACCTAGTGCAG”, for which the binding signal was 8500 fluorescence intensity (a.u.). Next, “AATTACTGTCATGATTTGAATTTGCAATCATTTCCTGTACCGGAGTCACCTAGTGCAG”: 10300 fluorescence intensity (a.u.); “GCCAACCCTTCCCATCAAATCTGGTCAAATCTTCTCTATCCGGAGTCACCTAGTGCAG”: 8100 fluorescence intensity (a.u.); “TGGAGGTGGAGGTCGCGGTGATTTGGTGTAGTAGTAGTAGCGGAGTCACCTAGTGCAG”: 8660 fluorescence intensity (a.u.). Then “GTCCCCAACTCTGACTGTCCCCACGTTTTCAGGCTGTTTGCGGAGTCACCTAGTGCAG”, with 8340 fluorescence intensity (a.u.); and “GCTTTACTTCAGCCTACTGTCCTGAGCACCTGATCGTACACGGAGTCACCTAGTGCAG”, with 12100 fluorescence intensity (a.u.); and “CAGATCGACTCGACTCGACCAGGTTCTCTCGTTTTTACTCCGGAGTCACCTAGTGCAG”, with 9940 fluorescence intensity (a.u.).

The values are drawn from PMC7819943, “Rice protein-binding microarrays: a tool to detect cis-acting elements near promoter regions in rice”.
